Test results as given in patent US20050181995A1.
Results are given in words; binding and its absence hold for the method and conditions named. Some entries that bind do so weakly or less than the wild type.

Chains of the proteins cited; added tags and fusions are not shown. Residues count along the entry.
UniProt P35968, residues 20-764: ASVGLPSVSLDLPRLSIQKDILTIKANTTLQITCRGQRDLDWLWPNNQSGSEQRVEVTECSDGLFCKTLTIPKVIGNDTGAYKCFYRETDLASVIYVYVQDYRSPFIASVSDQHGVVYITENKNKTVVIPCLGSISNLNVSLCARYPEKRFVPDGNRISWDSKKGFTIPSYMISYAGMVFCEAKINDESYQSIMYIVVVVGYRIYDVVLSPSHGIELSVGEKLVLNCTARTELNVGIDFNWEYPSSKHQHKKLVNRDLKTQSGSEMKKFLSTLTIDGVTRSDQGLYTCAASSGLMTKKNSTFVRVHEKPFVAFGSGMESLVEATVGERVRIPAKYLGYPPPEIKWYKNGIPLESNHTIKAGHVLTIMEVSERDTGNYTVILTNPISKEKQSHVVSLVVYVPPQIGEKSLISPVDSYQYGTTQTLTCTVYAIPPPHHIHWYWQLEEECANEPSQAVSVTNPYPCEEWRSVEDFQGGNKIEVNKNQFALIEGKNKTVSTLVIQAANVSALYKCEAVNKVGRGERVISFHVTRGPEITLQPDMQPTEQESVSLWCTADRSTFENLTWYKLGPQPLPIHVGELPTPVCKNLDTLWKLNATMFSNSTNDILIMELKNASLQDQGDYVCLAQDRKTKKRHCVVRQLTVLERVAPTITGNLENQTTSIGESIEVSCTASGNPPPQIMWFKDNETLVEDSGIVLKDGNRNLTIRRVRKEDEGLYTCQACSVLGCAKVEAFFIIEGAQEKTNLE

Target: KDR-IgG (UniProt P35968)
Experiment: SPR (BIAcore 3000), KDR-IgG immobilised on CM5 chip

B1: HF (hypotensive factor from the venom of Vipera aspis aspis) (ligand)
chain: EVRPFLEVHERSACQARETLVSILQEYPDEISDIFRPSCVAVLRCSGCCTDESLKCTPVGKHTVDLQIMRVNPRTQSSKMEVMKFTEHTACECRPRRKQGEPDGPKEKPR
In the case of B1, the binding is reported as “binds”.
